Source: the supplement of paper PMC3334620
Whole data set: some 33,000 sequences, median “E-score (-0.5 to 0.5)” near -0.016, cut for the highest 2% near 0.3. Some of the results follow.

These sequences were tested against T1, Yer184c (UniProt P39961) (assay: PBM E-score (8-mer binding enrichment) (E-score (-0.5 to 0.5)); higher = stronger / more preferred TF binding). Conditions: protein concentration: 100 nM; construct: GST-full length.
T1 sequence: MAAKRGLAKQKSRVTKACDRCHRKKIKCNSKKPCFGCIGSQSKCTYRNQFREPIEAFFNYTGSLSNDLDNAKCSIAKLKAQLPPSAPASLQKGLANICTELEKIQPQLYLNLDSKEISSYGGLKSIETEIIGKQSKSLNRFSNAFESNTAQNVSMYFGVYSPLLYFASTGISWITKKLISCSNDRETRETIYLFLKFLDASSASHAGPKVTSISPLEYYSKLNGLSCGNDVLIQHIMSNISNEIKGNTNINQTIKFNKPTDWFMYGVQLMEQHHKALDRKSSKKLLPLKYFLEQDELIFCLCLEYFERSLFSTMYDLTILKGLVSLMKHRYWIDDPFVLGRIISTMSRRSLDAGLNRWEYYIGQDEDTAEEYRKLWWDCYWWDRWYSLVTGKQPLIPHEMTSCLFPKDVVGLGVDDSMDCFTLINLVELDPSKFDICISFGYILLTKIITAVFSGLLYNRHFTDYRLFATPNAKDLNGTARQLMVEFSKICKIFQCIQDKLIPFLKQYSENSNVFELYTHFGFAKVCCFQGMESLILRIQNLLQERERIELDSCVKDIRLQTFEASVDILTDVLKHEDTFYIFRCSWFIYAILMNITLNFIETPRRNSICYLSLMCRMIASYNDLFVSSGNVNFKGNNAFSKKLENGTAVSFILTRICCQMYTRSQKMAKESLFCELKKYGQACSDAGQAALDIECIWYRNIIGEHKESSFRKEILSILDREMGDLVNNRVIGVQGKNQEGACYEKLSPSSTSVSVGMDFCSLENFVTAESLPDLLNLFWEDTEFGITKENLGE
Protocol: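 Universal 'all 10-mer' protein binding microarrays (Agilent AMADID 015681) probed with GST-tagged S. cerevisiae TFs (full-length or DBD) made by in vitro transcription/translation (PURExpress), about 100-200 nM. Bound TF was detected with fluorescent anti-GST. Each ungapped 8-mer (which stands for itself and its reverse complement) is scored by the PBM enrichment score (E-score), a modified Wilcoxon-Mann-Whitney statistic from -0.5 to +0.5, computed with the Universal PBM Analysis Suite. Scale: above 0.35 generally sequence-specific binding.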

Sequence | PBM E-score
CCCGGGTC | 0.202
AGCGCGGC | 0.0107
CGGGTAAA | 0.215
CTACTCTA | 0.0455
CGATTAAA | 0.243
GATCTGAC | -0.0541
ATTTGGTA | 0.188
AAGTGGTA | -0.163
ATTTTTGA | 0.164
AGGGCTCG | -0.143
CCTCACCA | -0.239
AAGAAATG | 0.227
ACCGAGGG | -0.168
GTCGCTAA | 0.013
ATATTATG | 0.261
ATATGCAA | 0.0547
CTGGTCCC | -0.353
CCAACGAG | -0.255
AACTATTA | 0.126
ACTTAATG | -0.0208
AGCGTTCC | 0.0949
GATTAATC | 0.299
CTATTGAG | -0.125
CATCCTCG | 0.127
ACGTACTC | -0.0207

Sequence | PBM E-score
CCCTATAA | -0.216
CGATCCTC | -0.18
TCCATAAA | 0.0466
AAGGCAGA | -0.221
CTCTGGTC | -0.0844
GTCTCCAC | -0.11
GATCCAGA | 0.164
CAGCGATA | -0.0107
AGATAATC | 0.13
AATGGTTA | -0.0173
CCACGCCG | -0.00749
ATCGAGAC | 0.0367
AGCCATAT | -0.0325
ATCGTGCA | -0.0208
CAGGTTCA | -0.21
CTGGACTA | -0.172
CCAAGGAG | -0.18
CGTGTGAA | -0.03
GCGATCTA | 0.0904
CTCCTCGA | -0.108
ACGGACAC | 0.152
CAACACGG | 0.135
CTTCGCGC | 0.158
CCAACTAC | -0.0221
CCGCTCAG | -0.115

Sequence | PBM E-score
TATTAATA | -0.00461
CCATCGAG | 0.0671
AAGACTAT | -0.0552
AAGATTCA | 0.0804
GACACAGA | 0.08
CAGCCTAA | -0.117
AAGGGACT | -0.172
ACTCTCTC | 0.00201
ATGCGTTG | -0.00373
ACTGTTTG | -0.015
AGTATACA | 0.116
GACTTAAA | 0.0439
ACTTTGGA | 0.0736
CTGGGAAC | -0.0861
GGTTTAAC | 0.0515
GCATCCAC | -0.0329
CAACATAC | 0.113
GAGTGCGA | -0.032
CTTAAGCC | 0.0119
ACTTCACA | 0.00662
CCCAACGC | -0.137
ACAAGAAT | 0.151
CAGAGCAG | -0.00548
ACGGCCCG | 0.146
AATTGTAC | 0.145

Sequence | PBM E-score
GACACCTA | -0.129
GTTCATAA | 0.107
GTCTGTTA | 0.122
AATCTACC | 0.122
TACAACAA | 0.132
TGCGTACA | -0.132
CGCTGAGA | -0.0171
ACTGTCCG | 0.219
AACCTTAC | 0.0211
CTGTGGTA | -0.0552
GCCAGAAA | 0.126
AGGGCGGC | -0.251
ACACTTCT | -0.145
ATTGATAG | 0.102
CCATATAC | 0.0285
CAGCAGTC | -0.145
ATATAACA | 0.309
CTATGAAA | 0.00567
AGTTAATA | 0.26
AGACAGCT | -0.157
CTCACCGC | -0.19
GCACCCGC | 0.0546
AGGGTGAT | -0.142
CGAATCGC | -0.0435
ACTGCACT | -0.0821

Sequence | PBM E-score
CGCAAAAC | 0.0423
CTTGAGAC | -0.0888
CATGACCG | -0.0859
CACGAATG | 0.00716
AGACCTCT | -0.243
ACGCCTTC | -0.122
ATAGGTAA | -0.0606
ATGCCCAT | -0.15
CATCGTCG | -0.0407
ACTGCACA | 0.0302
CGAAGACC | -0.00016
AGTCGCCA | -0.195
CTCTTAAG | -0.00772
ATCCCCGG | 0.185
CTTTGAGC | -0.162
ATCCTGCG | -0.0171
CATTATTC | 0.113
TCCTTCCA | -0.209
GGGAAGAA | -0.0284
ACACAAGG | -0.164
ATAGGTCG | -0.0995
CCATAGGC | -0.236
ACGAGCTG | -0.0534
CAAGCGCA | 0.0414
CTTCTGAC | -0.218

Sequence | PBM E-score
ACATGAAC | 0.041
ATCACAGG | -0.118
TGCTCCAA | 0.00011
TCTCGTAA | 0.0419
GTATTCAC | 0.249
AAACGTAC | -0.0505
ATGCTACG | -0.111
CCCAGTCG | -0.145
GAGCATAA | 0.186
AAATTTAA | 0.272
AATTTCTG | 0.146
ATACGTAG | -0.109
GTTCTGCA | -0.0675
ACTCAGCC | -0.154
CCGTGCTA | -0.0846
CTCATAAC | -0.017
ATGACAAT | 0.18
ACCGGCGT | 0.214
TCGCTACA | -0.303
ATGAATGC | 0.0146
CCACCAAC | -0.104
TAAAGACA | -0.135
CGCCTCTC | -0.356
GAATGCTC | -0.157
CAGGCTGA | -0.177

5 entries from above, as comma-separated lines:
Sequence,PBM E-score
CGATTAAA,0.243
CCAACTAC,-0.0221
GACACAGA,0.08
AAATTTAA,0.272
ATACGTAG,-0.109

Next results follow.

Sequence | PBM E-score
GCCCCCCA | -0.389
ACTTTTCT | -0.044
ATGCTGCA | -0.0853
ACTGCCGA | 0.262
CACACAAC | 0.00749
GCTACAGC | -0.0202
GATTGGCC | -0.0975
AAACAGTT | 0.109
ACGCACTC | -0.00473
AGTAGCAT | -0.0361
AAACTTGA | 0.0495
AAGACTCA | -0.194
AGTTGCAA | 0.0479
AAATACTT | 0.182
GGCGTAAC | -0.195
ATGATACA | 0.125
ACATACGC | -0.0638
CAATCACG | 0.0574
TGTAAGAA | 0.268
AATAATGG | 0.0275
TAACTAGA | 0.211
CGGTTATC | 0.114

Single entries from the list.
For PBM E-score, ACTGCACT is listed with -0.0821
For PBM E-score, ATGCTGCA is listed with -0.0853
For PBM E-score, CACGAATG is listed with 0.00716
